# Reference: PubChem BioAssay AID328 (DTP/NCI, 2004)
# The list shows only some results of the screen, not a fair sample: it gathers tests that were run many times, whatever their T/C, doses with no T/C, and many T/C values between a quarter and a half above the control. Further doses and runs are listed elsewhere. T/C gives the treated animals as a percentage of the vehicle group. Some doses have a count of surviving animals in place of a T/C: the source holds a T/C of zero for them, seemingly a mark for toxic or unscored doses. Some doses without a T/C left all or most animals alive at the check, yet need not have been tolerated: survival well below the control is almost never listed, so the zero probably covers shortened survival too. Counts of survivors are from the toxicity check (mostly the fifth day) where no day follows; animals may have died later. Schedule codes are those of the source, taken here to give the interval after Q, in days (D) or hours (H), and the number of doses after X. For survival time, the PubChem record calls one and a half times the control and up active, and a quarter to a half above the control has no call in these data; cut-offs in other NCI protocols can differ. Some structures stand for samples that the source files as different forms (salt, stereo form or complex); doses refer to the form tested. Some T/C values carry the count of animals alive at the toxicity check (mostly the fifth day); without a count, all were alive then.
# System: BDF1 mice, P388 leukemia ip, median survival T/C
# Assay: NCI In Vivo Anticancer Drug Screen. Data for tumor model P388 Leukemia (intraperitoneal) in B6D2F1 (BDF1) mice
# Conditions: T/C endpoint: median survival time, higher T/C = longer survival
# Outline: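 Read-out is survival of treated animals expressed relative to the vehicle group, as a T/C ratio.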
# [1] = dose: 50.0 mg/kg/injection, schedule: Q01DX009 (ip), vehicle: saline with Tween-80
# [2] = dose: 100.0 mg/kg/injection, schedule: Q01DX009 (ip), vehicle: saline with Tween-80
# [3] = dose: 200.0 mg/kg/injection, schedule: Q01DX009 (ip), vehicle: saline with Tween-80
# [4] = dose: 12.0 mg/kg/injection, schedule: Q04DX003 (ip), vehicle: saline
# [5] = dose: 100.0 mg/kg/injection, schedule: Q04DX003 (ip), vehicle: saline
# [6] = dose: 200.0 mg/kg/injection, schedule: Q01DX009 (ip), vehicle: Klucel (hydroxypropylcellulose) (HPC)
# [7] = dose: 200.0 mg/kg/injection, schedule: Q04DX003 (ip), vehicle: saline
# [8] = dose: 400.0 mg/kg/injection, schedule: Q04DX003 (ip), vehicle: saline
structure (smiles),measurement,setting,value
COc1cccc2c1cc([N+](=O)[O-])c1c(C(=O)O)cc3c(c12)OCO3,survivor count,"dose: 10.0 mg/kg/injection, schedule: Q01DX010 (ip), vehicle: other",6 of 6
COc1cccc2c1C(=O)c1c(O)c3c(c(O)c1C2=O)C[C@@](O)(C(=O)CO)C[C@@H]3OC1CC(NC(C)=O)C(O)C(C)O1 (some centres undefined),T/C,"dose: 50.0 mg/kg/injection, schedule: Q04DX009 (ip), vehicle: other",128 % of control
same,T/C,"dose: 400.0 mg/kg/injection, schedule: Q04DX009 (ip), vehicle: other",146 % of control
CC(Cc1ccc(O)c(O)c1)C(C)Cc1ccc(O)c(O)c1 (centres undefined),survivor count,"dose: 400.0 mg/kg/injection, schedule: Q01DX010 (ip), vehicle: saline",0 of 6
CCCCCCCCCCCCCCCC(=O)N(C/C=C/CN(CCCN(C)C)C(=O)CCCCCCCCCCCCCCC)CCCN(C)C,survivor count,"dose: 25.0 mg/kg/injection, schedule: Q01DX009 (ip), vehicle: saline with Tween-80",5 of 6
same,survivor count,[1],3 of 6
same,survivor count,[2],0 of 6
CCN1C[C@]2(COC)[C@H](O)C[C@H](OC)[C@]34C1[C@H]([C@H](OC)[C@H]23)[C@]1(OC(C)=O)[C@H]2[C@@H](OC(=O)c3ccccc3)[C@](O)(C[C@H]24)[C@@H](OC)[C@@H]1O,survivor count,"dose: 0.5 mg/kg/injection, schedule: Q01DX009 (ip), vehicle: Klucel (hydroxypropylcellulose) (HPC)",3 of 6
same,survivor count,"dose: 1.0 mg/kg/injection, schedule: Q01DX009 (ip), vehicle: Klucel (hydroxypropylcellulose) (HPC)",0 of 6
CCCCCCCCCCC[N+](C)(C)CC[N+](C)(C)CCCCCCCCCCC,survivor count,[1],0 of 6
same,survivor count,[2],0 of 6
same,survivor count,[3],0 of 6
CCCCOC(=O)C(N)Cc1ccc(OC)c(N(CCCl)CCCl)c1 (centres undefined),survivor count,[4],6 of 6
C#CC[N+](CCO)(CCO)CCCCCCCCCCCCCCCCCC,survivor count,"dose: 25.0 mg/kg/injection, schedule: Q01DX009 (ip), vehicle: Klucel (hydroxypropylcellulose) (HPC)",5 of 6
same,survivor count,"dose: 50.0 mg/kg/injection, schedule: Q01DX009 (ip), vehicle: Klucel (hydroxypropylcellulose) (HPC)",1 of 6
COc1cccc2c1C(=O)c1c(O)c3c(c(O)c1C2=O)C[C@@](O)(C(C)=O)C[C@@H]3OC1CC(NC(C)=O)C(O)C(C)O1 (some centres undefined),T/C,"dose: 2.5 mg/kg/injection, schedule: Q04DX003 (ip), vehicle: saline",131 % of control
same,T/C,"dose: 5.0 mg/kg/injection, schedule: Q04DX003 (ip), vehicle: saline",140 % of control
same,T/C,"dose: 5.56 mg/kg/injection, schedule: Q01DX009 (ip), vehicle: saline",133 % of control
same,T/C,"dose: 8.3 mg/kg/injection, schedule: Q04DX003 (ip), vehicle: saline",127 % of control
same,T/C,"dose: 8.33 mg/kg/injection, schedule: Q01DX009 (ip), vehicle: saline",137 % of control
same,T/C,[4],145 % of control
same,T/C,"dose: 18.7 mg/kg/injection, schedule: Q01DX009 (ip), vehicle: saline",125 % of control
same,T/C,"dose: 100.0 mg/kg/injection, schedule: Q04DX003 (ip), vehicle: saline sonified",125 % of control
same,survivor count,"dose: 200.0 mg/kg/injection, schedule: Q01DX009 (ip), vehicle: water",7 of 8
same,T/C,"dose: 200.0 mg/kg/injection, schedule: Q04DX003 (ip), vehicle: saline sonified",130 % of control
same,T/C,"dose: 400.0 mg/kg/injection, schedule: Q04DX003 (ip), vehicle: saline sonified",140 % of control
O=C(CS)OCCOC(=O)CS,survivor count,[5],6 of 6
same,survivor count,[6],3 of 6
same,survivor count,[7],6 of 6
same,survivor count,[8],6 of 6
N=[N+]=CC(=O)CC(N)C(=O)O (centres undefined),survivor count,[5],6 of 6
same,survivor count,[7],6 of 6
same,survivor count,[8],6 of 6
Cc1onc(-c2c(Cl)cccc2Cl)c1C(=O)Nc1ccccc1CC1c2ccccc2CCN1C (centres undefined),survivor count,"dose: 100.0 mg/kg/injection, schedule: Q01DX009 (ip), vehicle: Klucel (hydroxypropylcellulose) (HPC)",6 of 6
same,survivor count,[6],6 of 6
CC(=O)Nc1cc(N(CCOS(C)(=O)=O)CCOS(C)(=O)=O)ccc1N=O,survivor count,"dose: 0.62 mg/kg/injection, schedule: Q01DX009 (ip), vehicle: saline",5 of 6
same,survivor count,"dose: 1.25 mg/kg/injection, schedule: Q01DX009 (ip), vehicle: saline",4 of 6
same,survivor count,"dose: 2.5 mg/kg/injection, schedule: Q01DX009 (ip), vehicle: saline",3 of 6
same,T/C,"dose: 2.5 mg/kg/injection, schedule: Q04DX003 (ip), vehicle: saline with Tween-80",133 % of control
same,T/C,"dose: 3.75 mg/kg/injection, schedule: Q04DX003 (ip), vehicle: saline with Tween-80",129 % of control
CC[C@@]1(O)C[C@H](OC2CC(N(C)C)C(OC3CC(O)C(OC4CC(O)C(O)C(C)O4)C(C)O3)C(C)O2)c2c(cc3c(c2O)C(=O)c2c(O)ccc(O)c2C3=O)[C@H]1C(=O)OC (some centres undefined),T/C,"dose: 3.0 mg/kg/injection, schedule: Q04DX003 (ip), vehicle: water",138 % of control
CC(C)c1ccc(N2C(N)=NC(N)=NC2(C)C)cc1,survivor count,"dose: 50.0 mg/kg/injection, schedule: Q01DX005 (ip), vehicle: Klucel (hydroxypropylcellulose) (HPC)",2 of 6
same,survivor count,"dose: 100.0 mg/kg/injection, schedule: Q01DX005 (ip), vehicle: Klucel (hydroxypropylcellulose) (HPC)",0 of 6
same,survivor count,"dose: 200.0 mg/kg/injection, schedule: Q01DX005 (ip), vehicle: Klucel (hydroxypropylcellulose) (HPC)",0 of 6
O=C(c1ccc(Cl)cc1)c1cccc[n+]1Cc1ccccc1,survivor count,"dose: 4.68 mg/kg/injection, schedule: Q01DX009 (ip), vehicle: Klucel (hydroxypropylcellulose) (HPC)",4 of 6
same,survivor count,"dose: 75.0 mg/kg/injection, schedule: Q01DX009 (ip), vehicle: Klucel (hydroxypropylcellulose) (HPC)",2 of 6
same,survivor count,"dose: 150.0 mg/kg/injection, schedule: Q01DX009 (ip), vehicle: Klucel (hydroxypropylcellulose) (HPC)",0 of 6
same,survivor count,"dose: 170.0 mg/kg/injection, schedule: Q04DX003 (ip), vehicle: Klucel (hydroxypropylcellulose) (HPC)",1 of 6
same,survivor count,"dose: 255.0 mg/kg/injection, schedule: Q04DX003 (ip), vehicle: Klucel (hydroxypropylcellulose) (HPC)",0 of 6
same,survivor count,"dose: 380.0 mg/kg/injection, schedule: Q04DX003 (ip), vehicle: Klucel (hydroxypropylcellulose) (HPC)",0 of 6
NNc1ncnc2c1ncn2C1OC(CO)C(O)C1O (centres undefined),T/C,"dose: 30.0 mg/kg/injection, schedule: Q01DX010 (ip), vehicle: saline",127 % of control
same,survivor count,"dose: 120.0 mg/kg/injection, schedule: Q01DX010 (ip), vehicle: saline",6 of 6
CC1(C)N=C(N)N=C(N)N1c1ccc(CCCCc2ccc(Cl)cc2Cl)cc1,T/C,"dose: 6.0 mg/kg/injection, schedule: Q01DX009 (ip), vehicle: saline",131 % of control
same,T/C,"dose: 6.25 mg/kg/injection, schedule: Q01DX002 (ip), vehicle: saline",130 % of control
same,T/C,"dose: 9.0 mg/kg/injection, schedule: Q01DX009 (ip), vehicle: saline",131 % of control
same,T/C,"dose: 12.5 mg/kg/injection, schedule: Q01DX002 (ip), vehicle: saline",130 % of control
Nc1cc(C(=O)Nc2ccc(C3=NCCN3)cc2)ccc1C(=O)Nc1ccc(C2=NCCN2)cc1,T/C,"dose: 1.0 mg/kg/injection, schedule: Q01DX009 (ip), vehicle: saline with Tween-80",125 % of control [5 of 6 alive]
same,T/C,"dose: 5.0 mg/kg/injection, schedule: Q01DX009 (ip), vehicle: saline with Tween-80",142 % of control
same,survivor count,[2],5 of 6
same,survivor count,[3],5 of 6
same,survivor count,"dose: 400.0 mg/kg/injection, schedule: Q01DX009 (ip), vehicle: saline with Tween-80",3 of 6
same,survivor count,"dose: 400.0 mg/kg/injection, schedule: Q04DX003 (ip), vehicle: saline with Tween-80",5 of 6
COc1cccc(S(=O)(=O)c2ccc([N+](=O)[O-])c3nonc23)c1,survivor count,[1],3 of 7
CN(C)c1ccc(/C=C/C2CC[N-]C3C(O)CCCC23)cc1.CN(C)c1ccc(/C=C/C2CC[N-]C3C(O)CCCC23)cc1.CN(C)c1ccc(/C=C/C2CC[N-]C3C(O)CCCC23)cc1.[Fe+3] (centres undefined),T/C,"dose: 400.0 mg/kg/injection, schedule: Q04DX002 (ip), vehicle: saline with Tween-80",125 % of control
